PubChem BioAssay AID504804 – Drosophila RNAi Screening Center | 2011

Aim: 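dsRNAs that improve Kc cell survival under doxorubicin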 (primary screen)
System: Drosophila Kc cells
Knock-down reagent: long dsRNA against Drosophila genes, 0.5 µg dsRNA per well
Timing: 96 h (48 h knock-down, then 48 h drug)
Conditions: doxorubicin 5 µg/ml for 48 h, added 48 h after dsRNA
Measured: 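Luminescent ATP counts per replicate, not normalised, reflecting viable cells after 48 h dsRNA knock-down followed by 48 h of 5 µg/ml doxorubicin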
Direction: raw ATP luminescence: higher = more viable cells, protection from doxorubicin
Active means: 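z-score of 2 or more over plate mean in both duplicates, retained only when retests and separate dsRNAs confirm the protection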
In all, the deposit lists about 19,000 reagents; shown is a random part of those with a known target gene and a result. Over the whole deposit, 47 (0.25%) were called active. 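Signals are raw, not normalised; exact z-scores behind calls not deposited; actives needed confirmation, so some wells reaching 2 SD are inactive.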 A number with no mark means an inactive call. Names joined by + are all predicted targets of the reagent.

The first 9 entries, ahead of the listing:
Target gene	DRSC id	SD above plate mean	raw ATP luminescence, replicate 1	raw ATP luminescence, replicate 2
side	DRSC14523		57330	62690
side	DRSC14716		58260	47820
side	DRSC14717		63660	54350
side	DRSC14718		59540	68890
side	DRSC14721		69090	52620
CG11151	DRSC19387		2.30e5	2.11e5
sals	DRSC14925		48690	28267
sals	DRSC16113		50060	48630
GCS2beta	DRSC02960		1.78e5	1.91e5

The listing, from the first entry:
Target gene	DRSC id	SD above plate mean	raw ATP luminescence, replicate 1	raw ATP luminescence, replicate 2
side	DRSC14523		57330	62690
side	DRSC14716		58260	47820
side	DRSC14717		63660	54350
side	DRSC14718		59540	68890
side	DRSC14721		69090	52620
CG11151	DRSC19387		2.30e5	2.11e5
sals	DRSC14925		48690	28267
sals	DRSC16113		50060	48630
GCS2beta	DRSC02960		1.78e5	1.91e5
Fer1	DRSC12507		52167	64597
Fer1	DRSC12555		64017	60207
Als2	DRSC11806		18453	15423
Mms19	DRSC12188		35167	35423
Ir60b	DRSC04217		54383	51210
5-HT2A	DRSC11990		18267	23867
CG7907	DRSC16339		32060	31420
dgo	DRSC06134		81620	69373
Hsp110	DRSC11186		26193	27893
RpS29 + snoRNA:Psi18S-1275	DRSC16433		43717	35713
Zif	DRSC12514		57440	21870
CG12376	DRSC06144		61653	51803
Cyp4d8	DRSC11131		45003	38393
Fer2	DRSC15925		93760	80020
CG15210	DRSC19656		3.67e5	3.96e5
CheA84a	DRSC12669		71193	52527
CG33978	DRSC17106		2.13e5	2.06e5
Git	DRSC06620		57597	58040
atms	DRSC12310		35800	40620
dati	DRSC17153		55770	51790
Or2a	DRSC18690		56590	49920
Srpk79D	DRSC11668		19970	20227
Srpk79D	DRSC11856		72553	72533
CG7484	DRSC10853		76413	70980
CG4962	DRSC10464		55637	44457
TwdlE	DRSC02392		45953	72677
mRRF2	DRSC16143		61240	62130
CG5089	DRSC06914		47037	52390
CG32631	DRSC19768	2 to 3 SD above plate mean		
CG2611	DRSC02710		54773	65370
Gr68a	DRSC10803		92000	69073
CG15818	DRSC02505		1.27e5	73133
CG31431	DRSC14589		59390	65890
CG5539	DRSC04510		38347	45157
CG4563	DRSC04474		51053	50647
scb	DRSC05542		76400	73603
Upf3	DRSC04092		79177	65747
Burs	DRSC14595		45640	50230
lncRNA:sphinx + ATPsynF	DRSC17191		1.76e5	2.27e5
Arpc4	DRSC02917		17770	19727
CG2915	DRSC06842		37833	42290
Sgf11	DRSC09987		40917	37013
CG6701	DRSC07007		78250	65157
CG5731	DRSC02883		42193	71610
Eglp2	DRSC04294		74350	70593
CG7011	DRSC09347		80990	98987
wtrw	DRSC14241		33213	37827
wtrw	DRSC15278		62533	55663
CG8891	DRSC03120		20563	19523
Vsx1	DRSC18349		24960	41780
Vsx1	DRSC18350		11700	15830
CG9953	DRSC11106		66023	83790
Bug22	DRSC02842		33827	53563
vex	DRSC19481		3.84e5	3.97e5
vex	DRSC19651		3.75e5	3.71e5
TAF1B	DRSC16001		59160	21100
sds22	DRSC17052		65530	66610
CG15530	DRSC15067		36270	41370
CG13813	DRSC10068		62413	70357
CG42360	DRSC04224		45187	49827
CG9849	DRSC04573		48223	57060
Ir47a	DRSC06215		44587	78270
kay	DRSC13962		2.11e5	2.19e5
kay	DRSC15048		17290	15370
Ucp4C	DRSC03132		37340	46457
qless	DRSC15103		54390	44410
qless	DRSC15507		51740	69970
CG34357	DRSC12211		63747	58710
CG34357	DRSC12238		45413	43090
CG34357	DRSC12334		72520	60827
CG13085	DRSC02189		56313	54010
Mkp + CG34140	DRSC08585		54180	61127
Srp54	DRSC03442		56477	48927
CG14810	DRSC17693		2.22e5	2.23e5
CG14810	DRSC17961		59220	53950
Sans	DRSC06357		69167	73077
CG15719	DRSC19685		3.20e5	3.61e5
CG34436	DRSC15164		49130	44190
sens-2	DRSC02136		37423	35010
sens-2	DRSC02613		27443	31157
sut4	DRSC07703		75603	69317
H2.0	DRSC03340		25527	34043
CG42496 + Ppcdc	DRSC03886		69523	65340
CG31551	DRSC12159		92717	31097
CG7251	DRSC03039		94947	74723
CG17167	DRSC20902		2.43e5	2.52e5
CG17167	DRSC20903		2.83e5	2.15e5
tst + CG10375	DRSC14237		29523	27080
qkr58E-2	DRSC04710		42463	43940
lqf	DRSC11363		42167	42740
Taf2	DRSC11298		33997	29543
Roc1a	DRSC18483		48750	19740
CG13791 (retired record)	DRSC02295		21893	22500
shams	DRSC16590		62350	65630
CG4835	DRSC10452		71310	80987
Arl2	DRSC14117		57413	58510
Rab39	DRSC17827		40320	43910
Rab14	DRSC03403		1.13e5	68630
